# Experimental data published in PubChem BioAssay AID504467 (National Center for Advancing Translational Sciences (NCATS), 2011).
# In all, about 330,000 compounds went through this assay and about 7,700 (2.3%) were called active. Inconclusive means that the source gave no clear call. Such entries were picked first, then a sample of the others. The call rests on the fitted dose curve; in most records, active means well fitted inhibition curve with a large enough effect; inconclusive means small, poorly fitted or top-dose-only effect, or effect the other way; inactive means flat fitted curve, though single readings scatter. A potency beside an inconclusive call is a rough fit, not a confirmed value.
# Assay: qHTS screen for small molecules that inhibit ELG1-dependent DNA repair in human embryonic kidney (HEK293T) cells expressing luciferase-tagged ELG1; further: nearly all actives have a fitted effect of over 55% in size
# Details: HEK293T ELG1-luciferase reporter, luminescence, 16 h, DNA damage induced by 5-fluorouridine; series mostly up to 46.1 µM
# In short: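 Cells (2,000 per well) received 5-fluorouridine plus test compound or DMSO and were incubated 16 hr at 37 °C, 5% CO2. Luciferase activity was read by luminescence 30 min after ONE-Glo addition; signal suppression marked inhibition of damage-induced ELG1 function.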
# Potency means the concentration at half of the fitted maximal effect.
row,SMILES,Potency
1,Cc1ccc(C(=O)CN(CCC(=O)O)C(=O)c2ccncc2)cc1,"inconclusive: 5.62 µM [activator, single point]"
2,O=C(CCOc1ccccc1F)N1CCN(c2ccccc2O)CC1,"inconclusive: 3.26 µM [activator, full curve]"
3,O=C(OCC(=O)N1CCOCC1)c1ccccc1O,"inconclusive: 14.6 µM [activator, partial curve]"
4,COc1ccc(OCC(=O)Nc2ccc(OC)c(S(=O)(=O)N3CCCCC3)c2)cc1,"inconclusive: 18.3 µM [inhibitor, single point]"
5,Cc1cc(C)n2ncc(/C(N)=N/OC(=O)c3ccccc3F)c2n1,"inconclusive: 16.4 µM [activator, partial curve]"
6,CCN1CCCC1CNC(=O)c1cn(CC)c2ccc(S(=O)(=O)N3CCCCCC3)cc2c1=O (stereo not drawn),inactive
7,O=C(N/N=C/c1ccc2c(c1)OCO2)c1cc(-c2ccccc2)nc2ccccc12,"inconclusive: 20.6 µM [inhibitor, single point]"
8,CCc1oc2ccccc2c1C(=O)c1cc(Br)c(O)c(Br)c1,inactive
9,O=C(COc1ccc(Br)cc1)N1CCCCCC1,"inconclusive: 20.6 µM [activator, single point]"
10,O=C(Nc1cccnc1)c1ccc(S(=O)(=O)c2ccc(Cl)cc2)cc1,"inconclusive: 18.3 µM [inhibitor, partial curve]"
11,COc1ccc(-c2[nH]c(-c3ccc(C)cc3)nc2SCC(=O)Nc2nccs2)cc1,"inconclusive: 20.6 µM [inhibitor, partial curve]"
12,Fc1ccccc1-c1csc(=Nc2cccnc2)n1CC1CCCO1 (stereo not drawn),"inconclusive: 29.1 µM [inhibitor, partial curve, poor fit]"
13,CC1=C(C(=O)OCC2CCCO2)C(c2ccc(C)cc2)C2=C(CC(C)(C)CC2=O)N1 (stereo not drawn),"inconclusive: 23.1 µM [activator, single point]"
14,CCOC(=O)c1sc2nc(-c3cccnc3)ccc2c1N,"inconclusive: 4.61 µM [activator, partial curve]"
15,Cc1cc(C(=O)CCl)c(C)n1Cc1ccco1,"inconclusive: 29.1 µM [activator, single point]"
16,NC(=O)c1ccc(NC(=O)C#Cc2ccccc2)cc1,"inconclusive: 29.1 µM [inhibitor, single point]"
17,CCCOc1ccc(N2C(=O)CC(N(CCc3ccc(OC)cc3)C(=O)c3cccc(F)c3)C2=O)cc1 (stereo not drawn),"inconclusive: 32.6 µM [inhibitor, single point]"
18,CCN(CC(=O)Nc1c(F)cccc1F)C(=O)c1cccc(S(=O)(=O)N2CCN(c3ccccc3)CC2)c1,"inconclusive: 18.3 µM [inhibitor, partial curve]"
19,COc1ccccc1N(C)S(=O)(=O)c1ccc(C(=O)Nc2ccc(C(N)=O)cc2)cc1,"inconclusive: 29.1 µM [inhibitor, single point]"
20,O=C(COc1ccc2ccc(=O)oc2c1)Nc1cccnc1,"inconclusive: 23.1 µM [activator, single point]"
21,CCC(C)(C)NC(=O)CCCSc1nc2ccccc2[nH]1,inactive
22,COc1nc(-c2ccccc2)ccc1-c1noc(-c2ccccc2)n1,"inconclusive: 16.4 µM [activator, partial curve]"

# Another view of part of the listing above:
row | SMILES | Potency
2 | O=C(CCOc1ccccc1F)N1CCN(c2ccccc2O)CC1 | inconclusive: 3.26 µM [activator, full curve]
4 | COc1ccc(OCC(=O)Nc2ccc(OC)c(S(=O)(=O)N3CCCCC3)c2)cc1 | inconclusive: 18.3 µM [inhibitor, single point]
8 | CCc1oc2ccccc2c1C(=O)c1cc(Br)c(O)c(Br)c1 | inactive
9 | O=C(COc1ccc(Br)cc1)N1CCCCCC1 | inconclusive: 20.6 µM [activator, single point]
10 | O=C(Nc1cccnc1)c1ccc(S(=O)(=O)c2ccc(Cl)cc2)cc1 | inconclusive: 18.3 µM [inhibitor, partial curve]
11 | COc1ccc(-c2[nH]c(-c3ccc(C)cc3)nc2SCC(=O)Nc2nccs2)cc1 | inconclusive: 20.6 µM [inhibitor, partial curve]
13 | CC1=C(C(=O)OCC2CCCO2)C(c2ccc(C)cc2)C2=C(CC(C)(C)CC2=O)N1 (stereo not drawn) | inconclusive: 23.1 µM [activator, single point]
14 | CCOC(=O)c1sc2nc(-c3cccnc3)ccc2c1N | inconclusive: 4.61 µM [activator, partial curve]
18 | CCN(CC(=O)Nc1c(F)cccc1F)C(=O)c1cccc(S(=O)(=O)N2CCN(c3ccccc3)CC2)c1 | inconclusive: 18.3 µM [inhibitor, partial curve]
20 | O=C(COc1ccc2ccc(=O)oc2c1)Nc1cccnc1 | inconclusive: 23.1 µM [activator, single point]

# Following part:

row,SMILES,Potency
1,Nc1ccccc1C(=O)NCc1ccc(F)cc1,inactive
2,Cc1ccccc1C(=O)Nc1ccc2c(c1)OCCO2,"inconclusive: 1.16 µM [activator, full curve]"
3,O=C(C1CC=CCC1)N1CCC(CO)(Cc2ccc(Cl)cc2)CC1 (stereo not drawn),"inconclusive: 25.9 µM [inhibitor, single point]"
4,COc1ccc(/C(O)=C2/C(=O)C(=O)N(CC3CCCO3)C2c2ccc(O)c(OC)c2)cc1 (stereo not drawn),inactive
5,Cc1nc2c(=O)n(C)c(=O)n(C)c2nc1Cl,"inconclusive: 20.6 µM [inhibitor, single point]"
6,CN1CCN(NC(=O)c2ccc(COc3ccccc3Br)o2)CC1,"inconclusive: 14.6 µM [activator, partial curve, poor fit]"
7,CC(=O)c1cccc(NC(=O)/C=C/c2ccc(S(=O)(=O)N3CCOCC3)cc2)c1,active: 23.1 µM
8,CCCn1c(C)cc(C(=O)COc2ccc(C)nc2[N+](=O)[O-])c1C,"inconclusive: 20.6 µM [activator, partial curve]"
9,COc1ccc2[nH]c(=O)c(CN(CCO)S(=O)(=O)c3ccc(C)cc3)cc2c1,inactive
10,Cc1cc(NC(=O)CCCC(=O)N(c2ccccc2)C(C(=O)NC2CCCCC2)c2cccs2)no1 (stereo not drawn),inactive
11,O=C(OCC(=O)N1CCN(c2ccc(F)cc2)CC1)c1cnc2ccccc2n1,"inconclusive: 10.3 µM [activator, partial curve, poor fit]"
12,CN1C(=O)CC(Nc2cccc3cccc(N)c23)C1=O (stereo not drawn),"inconclusive: 0.92 µM [inhibitor, partial curve]"
13,CN(C)C(CNC(=O)c1cc(S(=O)(=O)N(C)c2ccccc2)ccc1Cl)c1cccs1 (stereo not drawn),inactive
14,COc1cc(C(=O)NCc2nnc(SCC(=O)Nc3ccc4c(c3)OCO4)o2)cc(OC)c1OC,inactive
15,Cc1c(NC(=O)COC(=O)C23CC4CC(CC(O)(C4)C2)C3)c(=O)n(-c2ccccc2)n1C,inactive
16,O=C(NCCCN1CCOCC1)C1CCN(S(=O)(=O)c2cccc(Cl)c2Cl)CC1,inactive
17,CSc1ncccc1C(=O)OCc1nc2ccsc2c(=O)[nH]1,"inconclusive: 29.1 µM [activator, single point]"
18,Cc1cccc(C(=O)Nc2ccc(CC(=O)O)cc2)c1,"inconclusive: 5.8 µM [activator, partial curve, poor fit]"
19,CC(=O)Nc1nc(COc2ccccc2)cs1,"inconclusive: 13 µM [activator, partial curve]"
20,O=[N+]([O-])c1ccc(S(=O)(=O)N2CCN(C3CCN(Cc4ccccc4)CC3)CC2)cc1,"inconclusive: 0.291 µM [activator, full curve, poor fit]"
21,O=S(=O)(CC12C3C4C5C1C2C(Br)(C43)C51OCCO1)c1ccccc1 (stereo not drawn),inactive
